Laboratory results reported in the supplement of paper PMC12889115.
The list shows a part of the results. Values are raw readings; no control value is given beside them.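 First-pass screen: polymyxin B was added at a level that permeabilizes the Salmonella outer membrane while sparing the inner membrane. DMSO wells, with and without polymyxin B, defined maximum growth. Because plates differed from one another, each plate's data were ranked separately and the compounds with the lowest OD600 were carried forward as hits.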

System: Salmonella enterica serovar Typhimurium SL1344
Test: bacterial growth OD600 after 18 h with compound and polymyxin B; higher = more bacterial growth (less inhibition)
Settings: 50 µM, Mueller-Hinton broth

| SMILES | bacterial growth OD600 (polymyxin B 0.75 µg/mL) | bacterial growth OD600 (polymyxin B 1 µg/mL) |
| --- | --- | --- |
| Cc1occc1C(=O)Nc1cnn(CC(=O)N2CCc3c([nH]c4ccccc34)C2C(C)C)c1 (stereo not drawn) | 1.02 | – |
| COCC(=O)Nc1cnn(-c2cccc(C(=O)N3CCCC(COc4ccccc4F)C3)c2)c1 (stereo not drawn) | 0.709 | – |
| CSCCC(=O)N(C)C(Cc1ccccc1F)C1CCN(C(=O)/C=C/c2ccccc2)CC1 (stereo not drawn) | 0.005 | – |
| CC(C)N(C)Cc1nnnn1CC(=O)N1CCC(N2CCSCC2)CC1 | – | 1.01 |
| COCCn1cnc2cc(NC(=O)C3CCCCC3)cc(C(=O)N(C)C(C)c3cccs3)c21 (stereo not drawn) | 0.707 | – |
| Cc1ncc2c(c1CNC(=O)c1ccc3c(c1)OCO3)CCN(C(=O)CCc1c[nH]c3ccccc13)C2 | 0.77 | – |
| COc1ccc(OC)c(C(=O)N2CCC(n3nccc3NC(=O)C(C)(C)C)CC2)c1 | – | 1.06 |
| CC(C)(C)C(=O)N1CCC2(CCCN(Cc3cccc(F)c3F)C2=O)C1 (stereo not drawn) | – | 0.827 |
